Results from patent publication US20230338454A1, “FORSYTHIA SUSPENSA COMPONENT AND OPTIONAL PANAX GINSENG COMPONENT AND THE APPLICATION” (priority 2020, published 2023).

Tested on: HCMV AD169 strain
Assay: Inhibitory effect on HCMV in vitro (MEC, therapeutic index)
Type: cell-based, human cytomegalovirus
Experimental: Human embryonic lung fibroblast cell strain (purchased from Sino Best Biological Technology Co., Ltd.). The cells were cultured and subcultured according to the conventional method.
HCMV AD169 strain was purchased from American Type Culture Collection (ATCC).
Cells were inoculated in a 96-well plate, allowed to grow into monolayers, and inoculated with a virus challenge of 100 times TCD50. Starting from TD0, each drug was diluted stepwise according to 10-fold gradient to prepare 5 concentrations, with 4 wells set for each concentration. In addition, 4 wells of normal cell control and 4 wells of virus control were set.

Compound	Therapeutic index (TD0/MEC)
Nc1nc(O)c2ncn(COC(CO)CO)c2n1 [Ganciclovir (GCV), Ganciclovir, reference compound]	1
COc1cc(C2OCC3C(c4ccc5c(c4)OCO5)OCC23)ccc1OC1OC(C(=O)O)C(O)C(O)C1O [33, 34-methylenedioxy phillygenin-8-O-β-D-glucuronide]	100
COc1ccc(C2OCC3C(c4ccc(OC5OC(C(=O)O)C(O)C(O)C5O)c(O)c4)OCC23)cc1OC [9-Hydroxy-phillygenin glucuronide, 9-hydroxy phillygenin-8-O-β-D-glucuronide]	100
COc1cc(C2OCC3C(c4ccc(OC5OC(C(=O)O)C(O)C(O)C5O)c(OC)c4)OCC23)ccc1O [33-Hydroxy-phillygenin glucuronide, 33-hydroxy phillygenin-8-O-β-D-glucuronide]	100
